Here are results for 1 molecule from patent US10004253B1, “Method for increasing the health condition of crustaceans in aquaculture, survival rate and pigmentation” (priority 2017, dated 2018).

The subject of this series is P. monodon shrimp. Put plainly: Total pigment and Astaxanthin enantiomers deposited, commercial ponds, Example 7. The following applies: feed with 60 ppm; HPLC of dicamphanates. It is filed as in vivo. As to the method: The concentration of total pigment in crustacean specimens extract was carried out by UV/VIS spectrophotometric methods measurement absorbance at 470 nm (A 1%=2100 in Hexane).
The Astaxanthin enantiometers deposited by the crustaceans specimens, or from its different organs, were quantified by HPLC after derivatization into the corresponding dicamphanates (Vecchi and Muller 1979).
7. —Comparison of the different Astaxanthin enantiomers deposited by P. monodon that were given the following three different diets: commercial feed as control; commercial feed containing 120 ppm of Lutein or Zeaxanthin Long Chain Diesters Concentrate; and commercial feed that contained 60 ppm of synthetic Astaxanthin (Carophyll Pink).
An evaluation was carried on a commercial operation to determine the effect of feeding P. monodon shrimp with the same commercial feed that contained:
The specimens were seeded at 30/m^2, pl 7, in aerated and lined ponds. The ponds sizes were 0.25 Ha each.
At three grams weight, the ponds were sampled, the specimens were lyophillized and the dehydrated samples were ground and analyzed.
The concentration of total pigment in the crustacean specimens extract was carried out by UV/Vis spectrophotometric methods measurement absorbance at 470 nm (A 1%=2100 in hexane).
The analysis of Astaxanthin R/S enantiomers deposited by the crustacean specimens, were quantified by HPLC after derivatization into the corresponding dicamphanates (Vecchi and Muller 1979), in order to differentiate the Astaxanthin enantiomers.

Take `CC1=C(/C=C/C(C)=C/C=C/C(C)=C/C=C/C=C(C)/C=C/C=C(C)/C=C/C2=C(C)C(=O)[C@@H](O)CC2(C)C)C(C)(C)C[C@H](O)C1=O` [ROCHE Astaxanthin, Astaxanthin]: the “3R,3'R Astaxanthin (Cis+Trans) in deposited Astaxanthin” value is 15.1%, the “3R,3'S Meso-Astaxanthin (Cis+Trans) in deposited Astaxanthin” value is recorded as 37.6% and the “3S,3'S Astaxanthin (Cis+Trans) in deposited Astaxanthin” value stood at 47.3%.
